In PubChem BioAssay AID190 (DTP/NCI, 2004):
The list is a part of this screen's results and no random one: it gathers tests that were run many times, whatever their T/C, doses with no T/C, and many T/C values between a quarter and a half above the control. Further doses and runs are listed elsewhere. T/C is the treated group as % of the vehicle group. Some doses have a count of surviving animals in place of a T/C: the source holds a T/C of zero for them, seemingly a mark for toxic or unscored doses. Some doses without a T/C left all or most animals alive at the check, yet need not have been tolerated: the source hardly ever lists a survival T/C far under the control, and the zero likely stands for such cases as well. Survivors were counted at the toxicity check, usually on the fifth day, unless a day is given; later deaths do not show. Schedule codes are those of the source, read here as Q, the interval in days (D) or hours (H), X, the number of doses. Some entries were tested several times; the values are given in rising order. For survival time, this PubChem deposit counts one and a half times the control or more as active, and values a quarter to a half above the control carry no call in these data; other NCI protocols may use other cut-offs. Some T/C values are followed by the survivors on the day toxicity was checked, most often the fifth; without a count, all were alive then. Marks such as (2×) stand for listed records that agree. Numbered stars: 1 amine (or outer) side, 2 acyl side, 3 side chain; on linkers, the order of the positions; unused ones are H or OH. Bridge positions count the residues as written; N and C are the ends. Square brackets hold non-standard residues; d marks the D form. Peptide text beside a SMILES is read from it. I, II: the chains in the order shown. Actinocin(9to1) = Cc1c2oc3c(C)ccc(C(=O)[*:1])c3nc-2c(C(=O)[*:2])c(N)c1=O; aThr = C[C@H](O)[C@H](N)C(=O)O; NMeV = CN[C@H](C(=O)O)C(C)C; Sar = CNCC(=O)O

Tested on: AKR/Lw mice, AKR lymphoma ip, median survival T/C
Assay: NCI In Vivo Anticancer Drug Screen. Data for tumor model Lymphoma AKR (Transplanted) (intraperitoneal) in AKR/Lw mice
Conditions: T/C endpoint: median survival time, higher T/C = longer survival
Method: The antitumor activity of compounds was measured in mice bearing transplantable tumors. Survival or tumor size were measured and the results are expressed as the measurement made in the treated group (T) divided by the measurement made in the vehicle treated control group (C). The tumor model used in this assay is Lymphoma AKR (Transplanted) (intraperitoneal) in AKR/Lw mice

[1] = dose: 0.1 mg/kg/injection, schedule: Q01DX009 (ip), vehicle: saline
[2] = dose: 0.12 mg/kg/injection, schedule: Q01DX009 (ip), vehicle: saline
[3] = dose: 0.5 mg/kg/injection, schedule: Q01DX009 (ip), vehicle: saline
[4] = dose: 1.0 mg/kg/injection, schedule: Q01DX001 (ip), vehicle: saline
[5] = dose: 1.5 mg/kg/injection, schedule: Q01DX001 (ip), vehicle: saline
[6] = dose: 2.0 mg/kg/injection, schedule: Q01DX001 (ip), vehicle: saline
[7] = dose: 2.0 mg/kg/injection, schedule: Q04DX003 (ip), vehicle: saline
[8] = dose: 4.0 mg/kg/injection, schedule: Q01DX001 (ip), vehicle: saline

Cc1c2oc3c(C)ccc(C(=O)N[C@@H]4C(=O)N[C@H](C(C)C)C(=O)N5CCC[C@H]5C(=O)N(C)CC(=O)N(C)[C@@H](C(C)C)C(=O)O[C@H]4C)c3nc-2c(C(=O)N[C@@H]2C(=O)N[C@H](C(C)C)C(=O)N3CCC[C@H]3C(=O)N(C)CC(=O)N(C)[C@@H](C(C)C)C(=O)O[C@H]2C)c(N)c1=O (I: [aThr][dV]P[Sar][NMeV] / II: [aThr][dV]P[Sar][NMeV]; ester I:1-I:C, II:1-II:C; linker I:N-II:N via Actinocin(9to1)) was tested, and the survivor count (dose: 0.3 mg/kg/injection, schedule: Q01DX001 (ip), vehicle: saline) was 10 of 10 and the T/C (dose: 20.0 micrograms/kg/injection, schedule: Q01DX010 (ip), vehicle: saline) was 129 % of control.
In the case of C1CN1c1nc(N2CC2)nc(N2CC2)n1, the survivor count (dose: 0.02 mg/kg/injection, schedule: Q01DX009 (ip), vehicle: saline) is reported as 9 of 10, the survivor count (dose: 0.05 mg/kg/injection, schedule: Q01DX009 (ip), vehicle: saline) is reported as 10 of 10 and the T/C (dose: 0.06 mg/kg/injection, schedule: Q01DX009 (ip), vehicle: saline) is reported as 132 % of control. For the same molecule, the T/C [1] was 147 % of control [9 of 10 alive], the survivor count [1] was 10 of 10 and the T/C [2] was 97 [9 of 10 alive], 105 [9 of 10 alive], 106 % of control. The survivor count [2] was 9 of 10 and 10 of 10, the T/C (dose: 0.12 mg/kg/injection, schedule: Q04DX003 (ip), vehicle: saline, evaluated on day 30) was 102 % of control [9 of 10 alive] and the T/C (dose: 0.12 mg/kg/injection, schedule: Q04DX003 (ip), vehicle: saline, evaluated on day 60) was 89 [8 of 10 alive], 100, 102, 113, 180 % of control. For the same molecule, the T/C (dose: 0.25 mg/kg/injection, schedule: Q01DX009 (ip), vehicle: saline, evaluated on day 45) was 135 % of control, the T/C (dose: 0.25 mg/kg/injection, schedule: Q01DX009 (ip), vehicle: saline, evaluated on day 60) was 94 and 94 % of control [9 of 10 alive] and the survivor count (dose: 0.25 mg/kg/injection, schedule: Q01DX009 (ip), vehicle: saline) was 8 of 10 and 10 of 10. The T/C (dose: 0.25 mg/kg/injection, schedule: Q04DX003 (ip), vehicle: saline, evaluated on day 30) was 110 % of control, the T/C (dose: 0.25 mg/kg/injection, schedule: Q04DX003 (ip), vehicle: saline, evaluated on day 60) was 89 [9 of 10 alive], 93 [9 of 10 alive], 117 % of control and the survivor count (dose: 0.25 mg/kg/injection, schedule: Q04DX003 (ip), vehicle: saline) was 10 of 10. For the same molecule, the T/C (dose: 0.4 mg/kg/injection, schedule: Q04DX003 (ip), vehicle: saline) was 127 % of control, the T/C (dose: 0.5 mg/kg/injection, schedule: Q01DX001 (ip), vehicle: saline) was 100 (2×), 107, 116 [9 of 10 alive], 121 % of control and the T/C [3] was 122 % of control. For the same molecule, the survivor count [3] was 2 of 10, 9 of 10, 10 of 10, the T/C (dose: 0.5 mg/kg/injection, schedule: Q04DX003 (ip), vehicle: saline, evaluated on day 45) was 110 % of control and the T/C (dose: 0.5 mg/kg/injection, schedule: Q04DX003 (ip), vehicle: saline, evaluated on day 60) was 103, 107, 120 [8 of 10 alive], 134, 142, 173 % of control. The survivor count (dose: 0.5 mg/kg/injection, schedule: Q04DX003 (ip), vehicle: saline) was 8 of 10 and 10 of 10, the T/C (dose: 0.75 mg/kg/injection, schedule: Q04DX003 (ip), vehicle: saline) was 146 % of control and the T/C [4] was 108, 121, 123, 125 [9 of 10 alive], 133 [9 of 10 alive], 147 % of control. For the same molecule, the survivor count [4] was 9 of 10, the survivor count (dose: 1.0 mg/kg/injection, schedule: Q01DX009 (ip), vehicle: saline) was 10 of 10 and the T/C (dose: 1.0 mg/kg/injection, schedule: Q04DX003 (ip), vehicle: saline, evaluated on day 45) was 124 % of control. The T/C (dose: 1.0 mg/kg/injection, schedule: Q04DX003 (ip), vehicle: saline, evaluated on day 60) was 132 % of control, the survivor count (dose: 1.0 mg/kg/injection, schedule: Q04DX003 (ip), vehicle: saline) was 9 of 10 and 10 of 10 and the T/C [5] was 125 % of control [9 of 10 alive]. For the same molecule, the survivor count [5] was 10 of 10, the survivor count (dose: 1.6 mg/kg/injection, schedule: Q04DX003 (ip), vehicle: saline) was 9 of 10 and the T/C [6] was 90 [9 of 10 alive], 136, 139 % of control. For the same molecule, the survivor count [6] was 4 of 10, 6 of 10, 7 of 10, the T/C [7] was 148 % of control and the survivor count [7] was 2 of 10, 9 of 10, 10 of 10. The survivor count (dose: 3.0 mg/kg/injection, schedule: Q01DX001 (ip), vehicle: saline) was 0 of 10, 3 of 10, 4 of 10, the T/C [8] was 142 % of control and the survivor count [8] was 4 of 10. The survivor count (dose: 4.0 mg/kg/injection, schedule: Q04DX003 (ip), vehicle: saline) was 2 of 10 and 6 of 10, the survivor count (dose: 5.0 mg/kg/injection, schedule: Q01DX009 (ip), vehicle: saline) was 0 of 10 and the survivor count (dose: 5.0 mg/kg/injection, schedule: Q04DX003 (ip), vehicle: saline) was 0 of 10. For the same molecule, the survivor count (dose: 6.0 mg/kg/injection, schedule: Q01DX001 (ip), vehicle: saline) was 0 of 10 and 2 of 10, the survivor count (dose: 8.0 mg/kg/injection, schedule: Q01DX001 (ip), vehicle: saline) was 8 of 10 and the survivor count (dose: 10.0 mg/kg/injection, schedule: Q04DX003 (ip), vehicle: saline) was 0 of 10. The survivor count (dose: 12.0 mg/kg/injection, schedule: Q01DX001 (ip), vehicle: saline) was 0 of 10 and 3 of 10 and the survivor count (dose: 60.0 micrograms/kg/injection, schedule: Q01DX009 (ip), vehicle: saline) was 9 of 10.
With COc1cc([C@@H]2c3cc4c(cc3C[C@H]3COC(=O)[C@@H]32)OCO4)cc(OC)c1OC the survivor count (dose: 10.0 mg/kg/injection, schedule: Q01DX009 (ip), vehicle: Klucel (hydroxypropylcellulose) (HPC)) was 7 of 10, the survivor count (dose: 20.0 mg/kg/injection, schedule: Q01DX009 (ip), vehicle: Klucel (hydroxypropylcellulose) (HPC)) was 5 of 10 and the survivor count (dose: 40.0 mg/kg/injection, schedule: Q01DX009 (ip), vehicle: Klucel (hydroxypropylcellulose) (HPC)) was 1 of 10.
COc1cc2c(cc1OC)C13CCN4CC5=CCOC6CC(=O)N2C1C6C5CC43 (stereo unspecified) (tested in a mixture with another compound) was tested, and the survivor count (dose: 200.0 mg/kg/injection, schedule: Q01DX001 (ip), vehicle: Klucel (hydroxypropylcellulose) (HPC)) was 8 of 10 and the survivor count (dose: 400.0 mg/kg/injection, schedule: Q01DX001 (ip), vehicle: Klucel (hydroxypropylcellulose) (HPC)) was 3 of 10.
C/C=C(/C)N(C(C)=O)N(C(C)=O)c1ccc([N+](=O)[O-])cc1[N+](=O)[O-] was tested, and the survivor count (dose: 100.0 mg/kg/injection, schedule: Q04DX003 (ip), vehicle: Klucel (hydroxypropylcellulose) (HPC)) was 8 of 10 and the survivor count (dose: 400.0 mg/kg/injection, schedule: Q04DX003 (ip), vehicle: Klucel (hydroxypropylcellulose) (HPC)) was 10 of 10.
